In PubChem BioAssay AID602 (SRMLSC, 2007) one finds viability data, which are given here for 9 molecules.

One may read the viability as a read-out of living cells in per cent, often relative to untreated cells.

The other results are listed elsewhere or left out.

This assay can be described thus: MRP1 drug-resistance reversers in H69AR cells – cell-based, doxorubicin co-treatment, primary screen (AID 602). The following applies: H69AR cells + 2 uM doxorubicin, CellTiter-Glo, 72 h; measured here: viability with 2 uM doxorubicin; at 10 µM; stronger effect = lower value. (In ATP-based viability assays light output follows the ATP content of the culture.)
`c1ccc(CN2CCC(Nc3ccccc3)CC2)cc1`: the viability worked out at 80%.
`N/C(=N\O)c1c(N)no[n+]1[O-]`: the viability came to 98.8%.
For the molecule `CCC(CO)(C(=O)OC1CN2CCC1CC2)c1ccccc1` (centres undefined), the viability was determined as 99.9%.
The value for `CCOc1ncccc1C(=O)NCC1(N2CCOCC2)CCCCC1` was 89.6%; that for `Fc1ccccc1NC1CCN(Cc2ccccc2)CC1` was 91.8%; that for `O=C(OC1CN2CCC1CC2)C1c2ccccc2Oc2ccccc21` (centres undefined) was 75.3%.
To `O=C(NCC1(N2CCOCC2)CCCCC1)c1cc2ccccc2o1` belongs 86%; to `O=C(NCC1(N2CCOCC2)CCCCC1)c1cc(=O)[nH]c2ccccc12`, 95.4%.
To `N#CC1(Nc2ccccc2)CCN(CCc2ccccc2)CC1` belongs 89%.
